Test results published in patent US8299262B2, “Pyridylmethyl-sulfonamide compounds” (BASF SE, priority 2007, dated 2012).
Some of these results come from one statement about several compounds together. For at least one compound, name, drawing or mass did not settle the structure.

Columns and labels:
[1] = tested on: Scerotinia sclerotinum; assay: Microtiter test, Scerotinia sclerotinum (Use Example 8); assay type: cell-based; conditions: 125 ppm; control =100%, day 7
[2] = tested on: Mycosphaerella fijiensis (Benzimidazole-Resistant Isolate); assay: Microtiter test, Mycosphaerella fijiensis benzimidazole-resistant isolate (Use Example 9); assay type: cell-based; conditions: 125 ppm, control =100%, day 7
[3] = tested on: Cercospora sojina; assay: Microtiter test, Cercospora sojina (Use Example 11); assay type: cell-based; conditions: 125 ppm; control =100%, day 7
[4] = tested on: Microdochium nivale (Benzimidazole-Resistant Isolate); assay: Microtiter test, Microdochium nivale benzimidazole-resistant isolate (Use Example 12); assay type: cell-based; conditions: 125 ppm, control =100%, day 7
[5] = tested on: Microdochium nivale (Benzimidazole-Sensitive Isolate); assay: Microtiter test, Microdochium nivale benzimidazole-sensitive isolate (Use Example 13); assay type: cell-based; conditions: 125 ppm, control =100%, day 7
[6] = tested on: Phytophthora infestans; assay type: in vivo, Phytophthora infestans on tomato plants; conditions: 250 ppm, protective spray on tomato, assessed after 6 days; untreated plants 90% infected
[7] = tested on: Puccinia recondita; assay: Greenhouse test, curative action against Puccinia recondita on wheat (brown rust); assay type: in vivo, Puccinia recondita on wheat cultivar Kanzler; conditions: 250 ppm, curative spray on wheat one day after inoculation; untreated plants 90% infected
[8] = tested on: Leptosphaeria nodorum; assay: Microtiter test, Leptosphaeria nodorum (Use Example 4); assay type: cell-based; conditions: 125 ppm; control =100%, day 7
[9] = tested on: Phytophthora infestans; assay type: cell-based; conditions: 125 ppm; relative to active compound-free control (=100%), day 7
[10] = tested on: Pyricularia oryzae; assay type: cell-based; conditions: 125 ppm; control =100%, day 7
[11] = tested on: Septoria tritici; assay: Microtiter test, Septoria blotch pathogen Septoria tritici (Use Example 3); assay type: cell-based; conditions: 125 ppm; control =100%, day 7
[12] = tested on: Puccinia recondita; assay: Greenhouse test, protective action against Puccinia recondita on wheat (Use Example 16); assay type: in vivo, Puccinia recondita on wheat cultivar Kanzler; conditions: 250 ppm, protective spray on wheat; untreated plants 90% infected
[13] = tested on: Blumeria graminis tritici; assay: Greenhouse test, protective action against Blumeria graminis tritici on wheat (Use Example 17); assay type: in vivo, Blumeria graminis tritici on wheat cultivar Kanzler; conditions: 250 ppm, protective spray on wheat; untreated plants 90% infected
[14] = tested on: Ustilago maydis; assay: Microtiter test, Ustilago maydis (Use Example 5); assay type: cell-based; conditions: 125 ppm; control =100%, day 7
[15] = tested on: Corynespora cassiicola; assay: Microtiter test, Corynespora cassiicola (Use Example 6); assay type: cell-based; conditions: 125 ppm; control =100%, day 7
[16] = tested on: Mycosphaerella fijiensis (Benzimidazole-Sensitive Isolate); assay: Microtiter test, Mycosphaerella fijiensis benzimidazole-sensitive isolate (Use Example 10); assay type: cell-based; conditions: 125 ppm, control =100%, day 7
[17] = tested on: Sphaerotheca fuliginea; assay: Greenhouse test, protective action against Sphaerotheca fuliginea on cucumber (Use Example 18); assay type: in vivo; conditions: 250 ppm, protective spray on cucumber; untreated plants 90% infected

COc1cnccc1CNS(=O)(=O)c1ccc(Oc2ccccn2)cc1 [Example 8]
relative growth of the pathogen [1]: at most 25%
relative growth of the pathogen [2]: at most 25%
relative growth of the pathogen [3]: at most 25%
relative growth of the pathogen [4]: at most 25%
relative growth of the pathogen [5]: at most 25%
infection (% diseased leaf area) [6]: less than or equal to 15%
infection [7]: less than or equal to 15%

O=S(=O)(NCc1ccncc1)c1ccc(Oc2ccc(C(F)(F)F)cn2)cc1 [Example 9]
relative growth of the pathogen [8]: at most 25%
relative growth of the pathogen [2]: at most 25%
relative growth of the pathogen [3]: at most 25%
infection (% diseased leaf area) [6]: less than or equal to 15%
infection [7]: less than or equal to 15%

COc1cc(CNS(=O)(=O)c2ccc(Oc3ncccc3C(F)(F)F)cc2)ccn1 [Example 13]
growth of the pathogen [9]: at most 15%
relative growth of the pathogen [10]: at most 15%
relative growth of the pathogen [11]: at most 25%
relative growth of the pathogen [2]: at most 25%
infection (% diseased leaf area) [6]: less than or equal to 15%
infection [12]: less than or equal to 15%

COc1cc(CNS(=O)(=O)c2ccc(Oc3ncc(C(F)(F)F)cc3Cl)cc2)ccn1 [Example 14]
infection [7]: less than or equal to 15%
infection [12]: less than or equal to 15%
infection [13]: less than or equal to 15%

COc1nccc(CNS(=O)(=O)c2ccc(Oc3ccc(C(F)(F)F)cn3)cc2)c1OC [Example 21]
infection [7]: less than or equal to 15%
infection [13]: less than or equal to 15%

COc1nccc(CNS(=O)(=O)c2ccc(Oc3ncc(C(F)(F)F)cc3Cl)cc2)c1OC [Example 23]
infection [12]: less than or equal to 15%
infection [13]: less than or equal to 15%

Cc1nccc(CNS(=O)(=O)c2ccc(Oc3ncc(C(F)(F)F)cc3Cl)cc2)c1C [Example 27]
relative growth of the pathogen [1]: at most 25%
relative growth of the pathogen [2]: at most 25%
infection [12]: less than or equal to 15%
infection [13]: less than or equal to 15%

Cc1nccc(CNS(=O)(=O)c2ccc(Oc3ncccc3C(F)(F)F)cc2)c1C [Example 28]
relative growth of the pathogen [8]: at most 25%
relative growth of the pathogen [14]: at most 25%
relative growth of the pathogen [15]: at most 25%
relative growth of the pathogen [1]: at most 25%
relative growth of the pathogen [2]: at most 25%
relative growth of the pathogen [16]: at most 25%
relative growth of the pathogen [4]: at most 25%
relative growth of the pathogen [5]: at most 25%
infection [12]: less than or equal to 15%
infection [13]: less than or equal to 15%

COc1cc(OC)nc(Oc2ccc(S(=O)(=O)NCc3ccncc3)cc2)n1 [Example 39]
infection (% diseased leaf area) [6]: less than or equal to 15%
infection [17]: less than or equal to 15%

COc1cc(CNS(=O)(=O)c2ccc(Oc3cccc(C)n3)cc2)ccn1 [Example 45]
relative growth of the pathogen [10]: at most 15%
relative growth of the pathogen [11]: at most 25%
relative growth of the pathogen [8]: at most 25%
relative growth of the pathogen [14]: at most 25%
relative growth of the pathogen [1]: at most 25%
relative growth of the pathogen [2]: at most 25%
relative growth of the pathogen [16]: at most 25%
relative growth of the pathogen [3]: at most 25%
relative growth of the pathogen [4]: at most 25%
infection [7]: less than or equal to 15%

COc1cc(CNS(=O)(=O)c2ccc(Oc3ccc(C)nn3)cc2)ccn1 [Example 55]
growth of the pathogen [9]: at most 15%
relative growth of the pathogen [10]: at most 15%

COc1cnccc1CNS(=O)(=O)c1ccc(Oc2ccc(C)nn2)cc1 [Example 56]
growth of the pathogen [9]: at most 15%
relative growth of the pathogen [10]: at most 15%

COc1ccc(Oc2ccc(S(=O)(=O)NCc3ccnc(C)c3C)cc2)nn1 [Example 61]
growth of the pathogen [9]: at most 15%
relative growth of the pathogen [10]: at most 15%
infection (% diseased leaf area) [6]: less than or equal to 15%

COc1ccnc(Oc2ccc(S(=O)(=O)NCc3ccncc3OC)cc2)n1 [Example 68]
growth of the pathogen [9]: at most 15%
relative growth of the pathogen [10]: at most 15%

COc1ccnc(Oc2ccc(S(=O)(=O)NCc3ccnc(C)c3C)cc2)n1 [Example 69]
infection [17]: less than or equal to 15%

COc1cc(CNS(=O)(=O)c2ccc(Oc3ccc(Br)cn3)cc2)ccn1 [Example 70]
infection (% diseased leaf area) [6]: less than or equal to 15%
infection [17]: less than or equal to 15%

Cc1nccc(CNS(=O)(=O)c2ccc(Oc3ccc(Br)cn3)cc2)c1C [Example 71]
relative growth of the pathogen [8]: at most 25%
relative growth of the pathogen [14]: at most 25%
relative growth of the pathogen [1]: at most 25%
relative growth of the pathogen [2]: at most 25%
relative growth of the pathogen [16]: at most 25%
relative growth of the pathogen [3]: at most 25%
relative growth of the pathogen [4]: at most 25%
relative growth of the pathogen [5]: at most 25%
infection (% diseased leaf area) [6]: less than or equal to 15%
infection [17]: less than or equal to 15%

O=S(=O)(NCc1ccnc2ccccc12)c1ccc(Oc2ccc(Br)cn2)cc1 [Example 72]
infection (% diseased leaf area) [6]: less than or equal to 15%
infection [17]: less than or equal to 15%

Cc1nccc(CNS(=O)(=O)c2ccc(Oc3ccc(Cl)cn3)cc2)c1C [Example 73]
infection (% diseased leaf area) [6]: less than or equal to 15%
infection [17]: less than or equal to 15%

COc1cc(CNS(=O)(=O)c2ccc(Oc3ccc(Cl)cn3)cc2)ccn1 [Example 74]
relative growth of the pathogen [8]: at most 25%
relative growth of the pathogen [14]: at most 25%
relative growth of the pathogen [1]: at most 25%
relative growth of the pathogen [2]: at most 25%
relative growth of the pathogen [16]: at most 25%
relative growth of the pathogen [3]: at most 25%
relative growth of the pathogen [4]: at most 25%
infection (% diseased leaf area) [6]: less than or equal to 15%
infection [17]: less than or equal to 15%

Cc1cc(Oc2ccc(C(F)(F)F)cn2)ccc1S(=O)(=O)NCc1ccnc(C)c1C [Example 203]
relative growth of the pathogen [14]: at most 25%
relative growth of the pathogen [1]: at most 25%
relative growth of the pathogen [2]: at most 25%
relative growth of the pathogen [16]: at most 25%
relative growth of the pathogen [3]: at most 25%
relative growth of the pathogen [4]: at most 25%
infection (% diseased leaf area) [6]: less than or equal to 15%
infection [12]: less than or equal to 15%
